No constants are given. Whether binding was seen depends on the method and setting. Binding seen in cells or lysates may run through a third protein. Some binding calls cover weakened binding; strength is not graded here.
How the values were obtained:
[1] = molecular target: Vpr expressed in fission yeast cells (glycerol gradient) (HIV-1) (UniProt P12520); assay: co-sedimentation; extracts of fission yeast cells expressing vpr, centrifugation on a 10-40% glycerol gradient; fractions blotted with anti-Vpr and anti-Mts4
[2] = molecular target: HA-tagged Rhp23 expressed in fission yeast (fission yeast (Schizosaccharomyces pombe)) (UniProt O74803); assay: co-IP; fission yeast lysates, anti-HA antibody overnight at 4°C, protein A-agarose beads, washed with PBS; blots with anti-Mts2 or anti-Mts4; HA-Rhp23 with or without vpr expression

Amino acid sequences for entries named in this document (tags omitted).
UniProt P12520: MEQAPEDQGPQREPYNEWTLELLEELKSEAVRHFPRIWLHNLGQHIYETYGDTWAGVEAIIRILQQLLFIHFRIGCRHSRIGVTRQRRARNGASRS
UniProt O74803: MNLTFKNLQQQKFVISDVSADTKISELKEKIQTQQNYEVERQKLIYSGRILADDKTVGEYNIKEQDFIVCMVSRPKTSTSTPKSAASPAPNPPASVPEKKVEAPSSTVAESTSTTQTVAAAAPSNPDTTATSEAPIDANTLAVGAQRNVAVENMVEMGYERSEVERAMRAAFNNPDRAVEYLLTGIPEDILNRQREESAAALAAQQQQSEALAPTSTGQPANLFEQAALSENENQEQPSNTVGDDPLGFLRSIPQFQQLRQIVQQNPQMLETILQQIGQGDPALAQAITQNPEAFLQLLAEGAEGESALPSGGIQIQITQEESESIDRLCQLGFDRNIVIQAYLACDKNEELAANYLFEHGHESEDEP

B1: Mts4, subunit 2 (S2) of the 19S regulatory complex of the fission yeast 26S proteasome (protein, UniProt P87048 1-891)
chain: MSSKDISSKSPSGNDALNDKKGTKTSETNDRNSTNNTKERDELEDLSEEDLQLKNDLELLVQAVQDATPELVGSSLTQLKEIIRTSTSSMTAVPKPLKFLRPHYFTLVKIYDSWPQSPQKTQLADILSVLGMSYSNTSKHESLKYRLQGVTTDPSLWGHEYVRHLASEIEEEFASRQEEEAPTDDLMELALTIVPFFLTHNAEADAIDLLQELGAIEKVVPFVELDNASRVCLYITSCVNLLPFPEDVAMLRTAHAIYRKFDQLTQALNVAIRLDDMSLIKEDCEAATDPLLKKQMSYMLARQQIPMDMGDEELNDALNNTHLSDHFHYLGKELNLMDPKVPEDIFKTHLEVARTGLGASGVYSAKQNLANTFVNALVNAGYSNDRLILVDDEKTSWIYKNKESGLISATASIGLLQLWNVDMGLSLLDKYLYSSEENTKAGALLGIGVTNVAVRNEADPAMAILSEYLETGSVKLRASAILGLGLAYSGANREDLLDMLSPIVTDTDCPMQLSCLAALSLGLIFVGTCNGDVASTILQTLMEREESAQNDQWGRFMALGLALLFNGKQDLADATVETLKAIEGKIARQAEILVDICSYAGTGNVLHIQKLLHICSEPPSDDAKESETTIQTFAALGVATIAMGEDIGAEMVLRHFDHMMHYGEPSIRKAIPLALGLLSASNPQMRIFDTLSRYSHDNDLDVAYNAIFAMGLVGAGTSNARLAQLLRQLASYYHKESNALFMVRIAQGLLYLGKGTMTLNPYHTERQILGQTAFAGLMTVVLAMLDANTFVLDTSHWLLYAITLAIRPRMLITLGEDGQYLPVSVRVGQAVDVVGQAGRPKVITGWVTHTTPVLLHHNERAELATEAYTPLTSLEGIVILKKNTEDIEMTA
binding [1]: binds | binding [2]: binds
